In patent publication US6022851A, “Lantibiotic related to actagardine, and processes for the preparation and use thereof” (priority 1997, dated 2000):
Values after ≈ are worked out from the molar mass of the structure shown. Read-outs that look alike come from different tables or passages of the source. Not every detail of the peptide structures is certain; ends, links or a residue may be inferred.

Key:
Type in all cases: cell-based
Conditions in all cases: incubation time 24 h
E. Coli = tested on: E. Coli
Description: (§1) Tables 4 to 6 show the in-vitro antibacterial activity (MIC values[μg/ml]) of the actagardine (Acta) and of the compounds according to the invention.

S. aureus Exp54146 = tested on: S. aureus Exp54146
Description: as §1

S. pyogenes A561 = tested on: S. pyogenes A561
Description: as §1

S. aureus SG511 = tested on: S. aureus SG511
Description: as §1

| Structure (SMILES) | MIC values (E. Coli) | MIC values (S. aureus Exp54146) | MIC values (S. pyogenes A561) | MIC values (S. aureus SG511; S. aureus SG511 + 10% serum) | MIC values (S. aureus SG511; S. aureus SG511) |
| --- | --- | --- | --- | --- | --- |
| CC[C@H](N)C(=O)NC1CSCC(C(=O)NC2C(=O)N[C@@H](CC(C)C)C(=O)NC3C(=O)N[C@@H]([C@@H](C)CC)C(=O)N[C@@H](CCC(=O)O)C(=O)NC(CSC2C)C(=O)NCC(=O)NC2C(=O)N[C@@H](C(C)C)C(=O)N[C@@H]([C@@H](C)CC)C(=O)NC(CSC3C)C(=O)N[C@@H](C)C(=O)NC(C(=O)O)C[S+]([O-])C2C)NC(=O)[C@H](C(C)C)NC(=O)[C@H](Cc2c[nH]c3ccccc23)NC(=O)CNC(=O)[C@H](CO)NC1=O (stereo partly drawn) [Abu--Acta, N-α-aminobutyryl-actagardine] | > 40 µg/mL | 20 µg/mL (≈ 10.1 µM) | > 40 µg/mL | 10 µg/mL | 1.2 µg/mL (≈ 0.607 µM) |
| CC[C@H](NC(=O)OC(C)(C)C)C(=O)NC1CSCC(C(=O)NC2C(=O)N[C@@H](CC(C)C)C(=O)NC3C(=O)N[C@@H]([C@@H](C)CC)C(=O)N[C@@H](CCC(=O)O)C(=O)NC(CSC2C)C(=O)NCC(=O)NC2C(=O)N[C@@H](C(C)C)C(=O)N[C@@H]([C@@H](C)CC)C(=O)NC(CSC3C)C(=O)N[C@@H](C)C(=O)NC(C(=O)O)C[S+]([O-])C2C)NC(=O)[C@H](C(C)C)NC(=O)[C@H](Cc2c[nH]c3ccccc23)NC(=O)CNC(=O)[C@H](CO)NC1=O (stereo partly drawn) [Boc--Abu--Acta, N-Boc-Abu(0)-actagardine] | > 40 µg/mL | > 40 µg/mL | > 40 µg/mL | 10 µg/mL | 5 µg/mL (≈ 2.41 µM) |
| CC[C@H](C)[C@@H]1NC(=O)C2NC(=O)[C@H](CC(C)C)NC(=O)C(NC(=O)C3CSCC(NC(=O)[C@H](CCC(N)=O)NC(=O)OC(C)(C)C)C(=O)N[C@@H](CO)C(=O)NCC(=O)N[C@@H](Cc4c[nH]c5ccccc45)C(=O)N[C@@H](C(C)C)C(=O)N3)C(C)SCC(NC(=O)[C@H](CCC(=O)O)NC1=O)C(=O)NCC(=O)NC1C(=O)N[C@@H](C(C)C)C(=O)N[C@@H]([C@@H](C)CC)C(=O)NC(CSC2C)C(=O)N[C@@H](C)C(=O)NC(C(=O)O)C[S+]([O-])C1C (stereo partly drawn) [Boc--Gln--Acta] | > 40 µg/mL | > 40 µg/mL | – | > 40 µg/mL | 40 µg/mL (≈ 18.9 µM) |
| CC[C@H](C)[C@H](NC(=O)OC(C)(C)C)C(=O)NC1CSCC(C(=O)NC2C(=O)N[C@@H](CC(C)C)C(=O)NC3C(=O)N[C@@H]([C@@H](C)CC)C(=O)N[C@@H](CCC(=O)O)C(=O)NC(CSC2C)C(=O)NCC(=O)NC2C(=O)N[C@@H](C(C)C)C(=O)N[C@@H]([C@@H](C)CC)C(=O)NC(CSC3C)C(=O)N[C@@H](C)C(=O)NC(C(=O)O)C[S+]([O-])C2C)NC(=O)[C@H](C(C)C)NC(=O)[C@H](Cc2c[nH]c3ccccc23)NC(=O)CNC(=O)[C@H](CO)NC1=O (stereo partly drawn) [Boc--Ile--Acta, Boc-Ile(0)-actagardine] | > 40 µg/mL | > 40 µg/mL | – | 40 µg/mL | 20 µg/mL (≈ 9.51 µM) |
